# In PubChem BioAssay AID188 (DTP/NCI, 2004):
# The mice bore no tumour; each value counts animals alive of those treated. Counts of survivors are from the toxicity check (mostly the fifth day) where no day follows; animals may have died later. Schedules are NCI's codes, read here as Q, the interval in days (D) or hours (H), X, the number of doses. Some entries were tested several times; the values are given in rising order.
# System: CD2F1 mice, nontumored, toxicity/survival
# Assay: NCI In Vivo Anticancer Drug Screen. Data for tumor model Nontumored Animals (Toxicity Test) in CD2F1 (CDF1) mice
compound,measurement,setting,value
COc1cc2c[n+](C)c3c4cc5c(cc4ccc3c2cc1OC)OCO5,survivor count,"dose: 1.0 mg/kg/injection, schedule: Q03HX016 (ip), vehicle: saline with Tween-80",8 of 8
same,survivor count,"dose: 1.0 mg/kg/injection, schedule: Q03HX024 (ip), vehicle: saline with Tween-80",8 of 8
same,survivor count,"dose: 2.0 mg/kg/injection, schedule: Q01DX009 (ip), vehicle: water",8 of 8
same,survivor count,"dose: 2.0 mg/kg/injection, schedule: Q03HX008 (ip), vehicle: water",8 of 8
same,survivor count,"dose: 2.0 mg/kg/injection, schedule: Q03HX016 (ip), vehicle: saline with Tween-80",8 of 8
same,survivor count,"dose: 2.0 mg/kg/injection, schedule: Q03HX016 (ip), vehicle: water",8 of 8
same,survivor count,"dose: 2.0 mg/kg/injection, schedule: Q03HX024 (ip), vehicle: saline with Tween-80",8 of 8
same,survivor count,"dose: 2.0 mg/kg/injection, schedule: Q03HX024 (ip), vehicle: water",8 of 8
same,survivor count,"dose: 3.12 mg/kg/injection, schedule: Q01DX009 (ip), vehicle: water",8 of 8
same,survivor count,"dose: 4.0 mg/kg/injection, schedule: Q01DX009 (ip), vehicle: water",7 of 8
same,survivor count,"dose: 4.0 mg/kg/injection, schedule: Q01DX009 (sc), vehicle: water",8 of 8
same,survivor count,"dose: 4.0 mg/kg/injection, schedule: Q03HX008 (ip), vehicle: saline with Tween-80",8 of 8
same,survivor count,"dose: 4.0 mg/kg/injection, schedule: Q03HX008 (ip), vehicle: water",8 of 8
same,survivor count,"dose: 4.0 mg/kg/injection, schedule: Q03HX016 (ip), vehicle: saline with Tween-80",8 of 8
same,survivor count,"dose: 4.0 mg/kg/injection, schedule: Q03HX016 (ip), vehicle: water",7 of 8
same,survivor count,"dose: 4.0 mg/kg/injection, schedule: Q03HX024 (ip), vehicle: saline with Tween-80",8 of 8
same,survivor count,"dose: 4.0 mg/kg/injection, schedule: Q03HX024 (ip), vehicle: water",7 of 8
same,survivor count,"dose: 6.25 mg/kg/injection, schedule: Q01DX009 (ip), vehicle: water",8 of 8
same,survivor count,"dose: 8.0 mg/kg/injection, schedule: Q01DX009 (ip), vehicle: saline with Tween-80",8 of 8
same,survivor count,"dose: 8.0 mg/kg/injection, schedule: Q01DX009 (ip), vehicle: water",8 of 8
same,survivor count,"dose: 8.0 mg/kg/injection, schedule: Q01DX009 (oral), vehicle: water",8 of 8
same,survivor count,"dose: 8.0 mg/kg/injection, schedule: Q01DX009 (sc), vehicle: saline with Tween-80",8 of 8
same,survivor count,"dose: 8.0 mg/kg/injection, schedule: Q01DX009 (sc), vehicle: water",8 of 8
same,survivor count,"dose: 8.0 mg/kg/injection, schedule: Q03HX008 (ip), vehicle: saline with Tween-80",8 of 8
same,survivor count,"dose: 8.0 mg/kg/injection, schedule: Q03HX008 (ip), vehicle: water",7 of 8
same,survivor count,"dose: 8.0 mg/kg/injection, schedule: Q03HX016 (ip), vehicle: saline with Tween-80",8 of 8
same,survivor count,"dose: 8.0 mg/kg/injection, schedule: Q03HX016 (ip), vehicle: water",7 of 8
same,survivor count,"dose: 8.0 mg/kg/injection, schedule: Q03HX024 (ip), vehicle: saline with Tween-80",8 of 8
same,survivor count,"dose: 8.0 mg/kg/injection, schedule: Q03HX024 (ip), vehicle: water",7 of 8
same,survivor count,"dose: 8.0 mg/kg/injection, schedule: Q04DX003 (ip), vehicle: saline with Tween-80",8 of 8
same,survivor count,"dose: 8.0 mg/kg/injection, schedule: Q04DX003 (ip), vehicle: water",8 of 8
same,survivor count,"dose: 8.0 mg/kg/injection, schedule: Q08DX002 (ip), vehicle: saline with Tween-80",8 of 8
same,survivor count,"dose: 12.5 mg/kg/injection, schedule: Q01DX009 (ip), vehicle: water",8 of 8
same,survivor count,"dose: 16.0 mg/kg/injection, schedule: Q01DX001 (ip), vehicle: water",8 of 8
same,survivor count,"dose: 16.0 mg/kg/injection, schedule: Q01DX001 (oral), vehicle: water",8 of 8
same,survivor count,"dose: 16.0 mg/kg/injection, schedule: Q01DX001 (sc), vehicle: water",8 of 8
same,survivor count,"dose: 16.0 mg/kg/injection, schedule: Q01DX009 (ip), vehicle: saline with Tween-80",8 of 8
same,survivor count,"dose: 16.0 mg/kg/injection, schedule: Q01DX009 (ip), vehicle: water",8 of 8
same,survivor count,"dose: 16.0 mg/kg/injection, schedule: Q01DX009 (oral), vehicle: water",8 of 8
same,survivor count,"dose: 16.0 mg/kg/injection, schedule: Q01DX009 (sc), vehicle: saline with Tween-80",8 of 8
same,survivor count,"dose: 16.0 mg/kg/injection, schedule: Q01DX009 (sc), vehicle: water",8 of 8
same,survivor count,"dose: 16.0 mg/kg/injection, schedule: Q03HX008 (ip), vehicle: saline with Tween-80",8 of 8
same,survivor count,"dose: 16.0 mg/kg/injection, schedule: Q03HX008 (ip), vehicle: water",1 of 8
same,survivor count,"dose: 16.0 mg/kg/injection, schedule: Q03HX016 (ip), vehicle: saline with Tween-80",8 of 8
same,survivor count,"dose: 16.0 mg/kg/injection, schedule: Q03HX016 (ip), vehicle: water",1 of 8
same,survivor count,"dose: 16.0 mg/kg/injection, schedule: Q03HX024 (ip), vehicle: saline with Tween-80",8 of 8
same,survivor count,"dose: 16.0 mg/kg/injection, schedule: Q03HX024 (ip), vehicle: water",0 of 8
same,survivor count,"dose: 16.0 mg/kg/injection, schedule: Q04DX003 (ip), vehicle: saline with Tween-80",8 of 8
same,survivor count,"dose: 16.0 mg/kg/injection, schedule: Q04DX003 (ip), vehicle: water",8 of 8
same,survivor count,"dose: 16.0 mg/kg/injection, schedule: Q08DX002 (ip), vehicle: saline with Tween-80",8 of 8
same,survivor count,"dose: 16.0 mg/kg/injection, schedule: Q08DX002 (ip), vehicle: water",8 of 8
same,survivor count,"dose: 25.0 mg/kg/injection, schedule: Q01DX009 (ip), vehicle: water",7 of 8 and 8 of 8
same,survivor count,"dose: 32.0 mg/kg/injection, schedule: Q01DX001 (ip), vehicle: saline with Tween-80",8 of 8
same,survivor count,"dose: 32.0 mg/kg/injection, schedule: Q01DX001 (ip), vehicle: water",8 of 8
same,survivor count,"dose: 32.0 mg/kg/injection, schedule: Q01DX001 (oral), vehicle: water",8 of 8
same,survivor count,"dose: 32.0 mg/kg/injection, schedule: Q01DX001 (sc), vehicle: saline with Tween-80",8 of 8
same,survivor count,"dose: 32.0 mg/kg/injection, schedule: Q01DX001 (sc), vehicle: water",2 of 8
same,survivor count,"dose: 32.0 mg/kg/injection, schedule: Q01DX009 (ip), vehicle: saline with Tween-80",8 of 8
same,survivor count,"dose: 32.0 mg/kg/injection, schedule: Q01DX009 (ip), vehicle: water",8 of 8
same,survivor count,"dose: 32.0 mg/kg/injection, schedule: Q01DX009 (oral), vehicle: saline with Tween-80",8 of 8
same,survivor count,"dose: 32.0 mg/kg/injection, schedule: Q01DX009 (oral), vehicle: water",8 of 8
same,survivor count,"dose: 32.0 mg/kg/injection, schedule: Q01DX009 (sc), vehicle: saline with Tween-80",8 of 8
same,survivor count,"dose: 32.0 mg/kg/injection, schedule: Q01DX009 (sc), vehicle: water",8 of 8
same,survivor count,"dose: 32.0 mg/kg/injection, schedule: Q03HX008 (ip), vehicle: saline with Tween-80",8 of 8
same,survivor count,"dose: 32.0 mg/kg/injection, schedule: Q03HX008 (ip), vehicle: water",0 of 8
same,survivor count,"dose: 32.0 mg/kg/injection, schedule: Q03HX016 (ip), vehicle: saline with Tween-80",8 of 8
same,survivor count,"dose: 32.0 mg/kg/injection, schedule: Q04DX003 (ip), vehicle: saline with Tween-80",8 of 8
same,survivor count,"dose: 32.0 mg/kg/injection, schedule: Q04DX003 (ip), vehicle: water",8 of 8
same,survivor count,"dose: 32.0 mg/kg/injection, schedule: Q08DX002 (ip), vehicle: saline with Tween-80",8 of 8
same,survivor count,"dose: 32.0 mg/kg/injection, schedule: Q08DX002 (ip), vehicle: water",8 of 8
same,survivor count,"dose: 50.0 mg/kg/injection, schedule: Q01DX009 (ip), vehicle: water",2 of 8 and 4 of 8
same,survivor count,"dose: 64.0 mg/kg/injection, schedule: Q01DX001 (ip), vehicle: saline with Tween-80",8 of 8
same,survivor count,"dose: 64.0 mg/kg/injection, schedule: Q01DX001 (ip), vehicle: water",8 of 8
same,survivor count,"dose: 64.0 mg/kg/injection, schedule: Q01DX001 (oral), vehicle: water",8 of 8
same,survivor count,"dose: 64.0 mg/kg/injection, schedule: Q01DX001 (sc), vehicle: saline with Tween-80",8 of 8
same,survivor count,"dose: 64.0 mg/kg/injection, schedule: Q01DX001 (sc), vehicle: water",8 of 8
same,survivor count,"dose: 64.0 mg/kg/injection, schedule: Q01DX009 (ip), vehicle: saline with Tween-80",8 of 8
same,survivor count,"dose: 64.0 mg/kg/injection, schedule: Q01DX009 (ip), vehicle: water",0 of 8
same,survivor count,"dose: 64.0 mg/kg/injection, schedule: Q01DX009 (oral), vehicle: saline with Tween-80",8 of 8
same,survivor count,"dose: 64.0 mg/kg/injection, schedule: Q01DX009 (oral), vehicle: water",8 of 8
same,survivor count,"dose: 64.0 mg/kg/injection, schedule: Q01DX009 (sc), vehicle: saline with Tween-80",8 of 8
same,survivor count,"dose: 64.0 mg/kg/injection, schedule: Q01DX009 (sc), vehicle: water",7 of 8
same,survivor count,"dose: 64.0 mg/kg/injection, schedule: Q03HX008 (ip), vehicle: saline with Tween-80",7 of 8
same,survivor count,"dose: 64.0 mg/kg/injection, schedule: Q04DX003 (ip), vehicle: saline with Tween-80",8 of 8
same,survivor count,"dose: 64.0 mg/kg/injection, schedule: Q04DX003 (ip), vehicle: water",8 of 8
same,survivor count,"dose: 64.0 mg/kg/injection, schedule: Q08DX002 (ip), vehicle: saline with Tween-80",8 of 8
same,survivor count,"dose: 64.0 mg/kg/injection, schedule: Q08DX002 (ip), vehicle: water",8 of 8
same,survivor count,"dose: 128.0 mg/kg/injection, schedule: Q01DX001 (ip), vehicle: saline with Tween-80",8 of 8
same,survivor count,"dose: 128.0 mg/kg/injection, schedule: Q01DX001 (ip), vehicle: water",2 of 8
same,survivor count,"dose: 128.0 mg/kg/injection, schedule: Q01DX001 (oral), vehicle: water",8 of 8
same,survivor count,"dose: 128.0 mg/kg/injection, schedule: Q01DX001 (sc), vehicle: saline with Tween-80",8 of 8
same,survivor count,"dose: 128.0 mg/kg/injection, schedule: Q01DX001 (sc), vehicle: water",8 of 8
same,survivor count,"dose: 128.0 mg/kg/injection, schedule: Q01DX009 (ip), vehicle: saline with Tween-80",7 of 8
same,survivor count,"dose: 128.0 mg/kg/injection, schedule: Q01DX009 (oral), vehicle: saline with Tween-80",8 of 8
same,survivor count,"dose: 128.0 mg/kg/injection, schedule: Q01DX009 (oral), vehicle: water",8 of 8
same,survivor count,"dose: 128.0 mg/kg/injection, schedule: Q01DX009 (sc), vehicle: saline with Tween-80",8 of 8
same,survivor count,"dose: 128.0 mg/kg/injection, schedule: Q04DX003 (ip), vehicle: saline with Tween-80",8 of 8
same,survivor count,"dose: 128.0 mg/kg/injection, schedule: Q04DX003 (ip), vehicle: water",4 of 8
same,survivor count,"dose: 128.0 mg/kg/injection, schedule: Q08DX002 (ip), vehicle: saline with Tween-80",8 of 8
same,survivor count,"dose: 128.0 mg/kg/injection, schedule: Q08DX002 (ip), vehicle: water",3 of 8
same,survivor count,"dose: 256.0 mg/kg/injection, schedule: Q01DX001 (ip), vehicle: saline with Tween-80",8 of 8
same,survivor count,"dose: 256.0 mg/kg/injection, schedule: Q01DX001 (oral), vehicle: saline with Tween-80",8 of 8
same,survivor count,"dose: 256.0 mg/kg/injection, schedule: Q01DX001 (sc), vehicle: saline with Tween-80",8 of 8
same,survivor count,"dose: 256.0 mg/kg/injection, schedule: Q01DX009 (oral), vehicle: saline with Tween-80",8 of 8
same,survivor count,"dose: 256.0 mg/kg/injection, schedule: Q08DX002 (ip), vehicle: saline with Tween-80",8 of 8
same,survivor count,"dose: 512.0 mg/kg/injection, schedule: Q01DX001 (ip), vehicle: saline with Tween-80",3 of 8
same,survivor count,"dose: 512.0 mg/kg/injection, schedule: Q01DX001 (oral), vehicle: saline with Tween-80",8 of 8
same,survivor count,"dose: 512.0 mg/kg/injection, schedule: Q01DX001 (sc), vehicle: saline with Tween-80",8 of 8
same,survivor count,"dose: 512.0 mg/kg/injection, schedule: Q01DX009 (oral), vehicle: saline with Tween-80",8 of 8
same,survivor count,"dose: 1024.0 mg/kg/injection, schedule: Q01DX001 (oral), vehicle: saline with Tween-80",8 of 8
same,survivor count,"dose: 2048.0 mg/kg/injection, schedule: Q01DX001 (oral), vehicle: saline with Tween-80",8 of 8
